# Counter-ions that a name gives are not always drawn. Like-named read-outs stand apart in the source and are kept apart here. Hit rate of the full screen: of about 3,300 compounds, about 60 (2%) showed an effect of 50% or more. The list shows a part of the results.
# Tested on: HCoV-OC43
# Parameters: species or system RD; HTS, protection from HCoV-OC43 induced cell death, luminescent cell viability (CellCounting-Lite 2.0), inhibition rate
# Details: 24 h post infection, 1 h compound pre-incubation, 10 µM, inhibitor
smiles,measurement,setting,value
COc1ccccc1C=O [2-Methoxybenzaldehyde],OC43 Inhibition rate,,0.1%
"C[C@@H]1O[C@@H](O[C@@H]2[C@@H](O)[C@H](O)[C@@H](CO)O[C@H]2c2c(O)cc(O)c3c(=O)cc(-c4ccc(O)cc4)oc23)[C@H](O)[C@H](O)[C@H]1O [Vitexin-2""-O-rhamnoside]",OC43 Inhibition rate,,0%
NCCCCNCCCN [Spermidine (hydrochloride)],OC43 Inhibition rate,"OC43 Inhibition rate, 24 h",-3.4%
CC(O)CN (centres unmarked) [1-Aminopropan-2-ol],OC43 Inhibition rate,,0.4%
COc1cc2c(cc1O)CCN[C@]21CS[C@@H]2c3c(OC(C)=O)c(C)c4c(c3[C@H](COC1=O)N1[C@@H]2[C@H]2c3c(cc(C)c(OC)c3O)C[C@@H]([C@@H]1C#N)N2C)OCO4 [Ecteinascidin 770],OC43 Inhibition rate,,9.7%
O=c1cc(-c2ccccc2)oc2cccc(O)c12 [5-Hydroxyflavone],OC43 Inhibition rate,,10.7%
CC(C)(O)[C@H]1Cc2cc3ccc(=O)oc3cc2O1 [Nodakenetin],OC43 Inhibition rate,,4%
NC1CCN(c2nc3c(cc2F)c(=O)c(C(=O)O)cn3-c2ccc(F)cc2F)C1 (centres unmarked) [Tosufloxacin (tosylate hydrate)],OC43 Inhibition rate,,58.8%
COc1cc(-c2cc(=O)c3c(O)c(OC)c(O)cc3o2)ccc1O [Jaceosidin],OC43 Inhibition rate,,-0.3%
O=S(=O)(O)CCO [Isethionic acid sodium salt],OC43 Inhibition rate,,-0.5%
"C[C@@H](O)[C@@H](C)O [(2R,3R)-Butane-2,3-diol]",OC43 Inhibition rate,"OC43 Inhibition rate, 24 h",2.5%
Oc1ccc2c(c1)OC[C@H]1c3cc4c(cc3O[C@@H]21)OCO4 [(-)-Maackiain],OC43 Inhibition rate,"OC43 Inhibition rate, 24 h",2.8%
COc1c2ccoc2c(OCC(O)C(C)(C)O)c2oc(=O)ccc12 (racemic) [(Rac)-Byakangelicin],OC43 Inhibition rate,,-2.4%
Nc1ncnc2c1ncn2[C@@H]1O[C@H](COP(=O)(O)O)[C@@H](O)[C@H]1O [Adenosine 5'-monophosphate monohydrate],OC43 Inhibition rate,"OC43 Inhibition rate, 24 h",-3.1%
COc1ccc(C2COc3cc(O)ccc3C2)c(O)c1OC (centres unmarked) [Isomucronulatol],OC43 Inhibition rate,,16.2%
OC[C@@H](O)[C@@H](O)[C@@H](O)CO [Ribitol],OC43 Inhibition rate,,1%
Oc1cc(O)c2c(c1)O[C@H](c1cc(O)c(O)c(O)c1)[C@@H](O)C2 [(+)-Gallocatechin],OC43 Inhibition rate,,0.2%
OCc1ccccc1O [Salicyl alcohol],OC43 Inhibition rate,,0%
C/C1=C\CC[C@]23O[C@H]2[C@@H](OC3=O)c2c(C)coc2C1 [Linderane],OC43 Inhibition rate,,1%
Cc1cn([C@H]2C[C@H](O)[C@@H](CO)O2)c(=O)nc1N [5-Methyl-2'-deoxycytidine],OC43 Inhibition rate,,-0.4%
"C1CSCSC1 [1,3-Dithiane]",OC43 Inhibition rate,,-0.2%
CCCCCCCCCC(=O)O [Decanoic acid],OC43 Inhibition rate,,-4.9%
C[C@]1(C(=O)O)CC[C@]2(C)CC[C@]3(C)C(=CC(=O)[C@@H]4[C@@]5(C)CC[C@H](O[C@@H]6O[C@H](C(=O)O)[C@@H](O)[C@H](O)[C@H]6O[C@@H]6O[C@H](C(=O)O)[C@@H](O)[C@H](O)[C@H]6O)[C@](C)(CO)[C@@H]5CC[C@]43C)[C@@H]2C1 [Licoricesaponin G2],OC43 Inhibition rate,,-2.8%
C/C1=C\CC(C)(C)/C=C/C(=O)/C(C)=C/CC1 [Zerumbone],OC43 Inhibition rate,,0.3%
COC(=O)[C@@]12OC[C@]34[C@H]([C@@H](O)[C@@H]1O)[C@@]1(C)CC(=O)C(O)=C(C)[C@@H]1C[C@H]3OC(=O)[C@H](OC(=O)/C=C(\C)C(C)C)[C@@H]24 [Bruceantin],OC43 Inhibition rate,,5%
C=C[C@]1(C)CC[C@@H](C(=C)C)C[C@H]1C(=C)C [β-Elemene],OC43 Inhibition rate,,-0.3%
CC(C)CC(=O)C(=O)O [4-Methyl-2-oxopentanoic acid],OC43 Inhibition rate,,0%
C[C@@H]1O[C@@H](OC[C@H]2O[C@@H](Oc3cc(O)c4c(=O)cc(-c5ccc(O)cc5)oc4c3)[C@H](O[C@@H]3O[C@@H](C)[C@H](O)[C@@H](O)[C@H]3O)[C@@H](O)[C@@H]2O)[C@H](O)[C@H](O)[C@H]1O [Ligustroflavone],OC43 Inhibition rate,,5.5%
CC1=C2C[C@H]3[C@@H](CC=C4C[C@@H](O)CC[C@@]43C)[C@@H]2CC[C@]12O[C@@H]1C[C@H](C)CN[C@H]1[C@H]2C [Cyclopamine],OC43 Inhibition rate,,0%
COc1cc(CO)ccc1O [Vanillyl alcohol],OC43 Inhibition rate,,4.7%
COc1c2c(cc3oc(C)cc(=O)c13)OC(C(C)(C)O[C@@H]1O[C@H](CO)[C@@H](O)[C@H](O)[C@H]1O)C2 (some centres unmarked) [5-O-Methylvisammioside],OC43 Inhibition rate,,0.3%
COc1cccc(O)c1C(=O)O [2-Hydroxy-6-methoxybenzoic acid],OC43 Inhibition rate,,0%
C/C=C1\C(=O)C[C@H]2[C@@H]3CCC4=CC(=O)CC[C@]4(C)[C@H]3CC[C@]12C [Guggulsterone],OC43 Inhibition rate,"OC43 Inhibition rate, 24 h",-0.4%
Cc1ncc(CO)c(CO)c1O [Pyridoxine],OC43 Inhibition rate,"OC43 Inhibition rate, 24 h",-0.5%
CC(=O)C(=O)O [Pyruvic acid],OC43 Inhibition rate,,-0.6%
CC(=O)O[C@@H]1C(=O)C2=C(C(=O)C[C@H]3C(C)(C)C(=O)CC[C@]23C)[C@]2(C)C(=O)C[C@H]([C@H](C)CC(=O)CC(C)C(=O)O)[C@@]12C (some centres unmarked) [Ganoderic acid F],OC43 Inhibition rate,,-0.7%
CO[C@H]1C[C@H](O[C@H]2CC[C@@]3(C)C(=CC[C@]4(O)[C@@H]3C[C@@H](OC(=O)c3ccc(O)cc3)[C@@]3(C)[C@]4(O)CC[C@@]3(O)C(C)=O)C2)O[C@H](C)[C@H]1O[C@H]1C[C@H](OC)[C@H](O[C@H]2C[C@@H](OC)[C@H](O)[C@@H](C)O2)[C@@H](C)O1 [Qingyangshengenin A],OC43 Inhibition rate,,1.5%
CC(=O)NCCc1cnc[nH]1 [N-Acetylhistamine],OC43 Inhibition rate,,-0.2%
CN(CC(=O)O)C(=N)NP(=O)(O)O [Phosphocreatine (disodium)],OC43 Inhibition rate,,-1.7%
O=C(O)CCCCCCCCCCCCCCC(=O)O [Hexadecanedioic acid],OC43 Inhibition rate,,4.8%
C=C1CC[C@H]2C(=C)CC[C@H]3C(=C)C(=O)O[C@@H]3[C@@H]12 [Dehydrocostus Lactone],OC43 Inhibition rate,,38.6%
C[C@H](CCC(=O)O)[C@H]1CC[C@H]2[C@@H]3C(=O)C[C@@H]4C[C@H](O)CC[C@]4(C)[C@H]3C[C@H](O)[C@]12C [7-keto-Deoxycholic acid],OC43 Inhibition rate,,13.3%
CC(C)c1ccc(C=O)cc1 [Cuminaldehyde],OC43 Inhibition rate,,-1.7%
C/C=C/SC[C@H](NC(=O)CC[C@H](N)C(=O)O)C(=O)O [γ-Glutamyl-S-1-propenyl cysteine],OC43 Inhibition rate,,2.8%
Cc1c[nH]c(=O)[nH]c1=O [Thymine],OC43 Inhibition rate,,-0.6%
C=C1CC[C@@H]2[C@](C)(COC(=O)CCC(=O)O)[C@H](OC(=O)CCC(=O)O)CC[C@@]2(C)[C@@H]1/C=C/C1=CCOC1=O [Kalii Dehydrographolidi Succinas],OC43 Inhibition rate,,-0.2%
C/C=C(/C)C(=O)O[C@H]1[C@@H](OC(C)=O)c2c(ccc3ccc(=O)oc23)OC1(C)C [Praeruptorin A],OC43 Inhibition rate,,0.8%
CC(=O)Nc1ccn([C@@H]2O[C@H](CO)[C@@H](O)[C@H]2O)c(=O)n1 [N4-Acetylcytidine],OC43 Inhibition rate,,-5.6%
C/C=C/C/C=C/CCC(=O)[C@H]1O[C@H]1C(N)=O [Cerulenin],OC43 Inhibition rate,,1.1%
C=C1C[C@@]23CC[C@H]4[C@@](C)(CCC[C@@]4(C)C(=O)O)[C@@H]2CC[C@]1(O[C@@H]1O[C@H](CO)[C@@H](O)[C@H](O)[C@H]1O[C@@H]1O[C@H](CO)[C@@H](O)[C@H](O)[C@H]1O)C3 [Steviolbioside],OC43 Inhibition rate,,-0.6%
CC1(C)CC[C@]2(C(=O)O[C@@H]3O[C@H](CO)[C@@H](O)[C@H](O)[C@H]3O)CC[C@]3(C)C(=CC[C@@H]4[C@@]5(C)CC[C@H](O[C@@H]6O[C@H](C(=O)O)[C@@H](O[C@@H]7O[C@@H](CO)[C@H](O)[C@H]7O)[C@H](O)[C@H]6O)C(C)(C)[C@@H]5CC[C@]43C)[C@@H]2C1 [Araloside A],OC43 Inhibition rate,,1.5%
COc1cccc2c1cc([N+](=O)[O-])c1c(C(=O)O)cc3c(c12)OCO3 [Aristolochic acid A],OC43 Inhibition rate,,2.7%
Oc1cc(O)c2c(c1)O[C@H](c1ccc(O)c(O)c1)[C@H](O)[C@H]2c1c(O)cc(O)c2c1O[C@H](c1ccc(O)c(O)c1)[C@H](O)[C@H]2c1c(O)cc(O)c2c1O[C@H](c1ccc(O)c(O)c1)[C@H](O)C2 [Procyanidin C1],OC43 Inhibition rate,,-0.5%
C[C@H]1O[C@@H](Oc2ccc(COC(=O)CC(O)(CC(=O)OCc3ccc(O[C@@H]4O[C@H](CO)[C@@H](O)[C@H](O)[C@H]4O)cc3)C(=O)Oc3ccc(O[C@H]4O[C@H](CO)[C@@H](O)[C@H](O)[C@H]4O)cc3)cc2)[C@H](O)[C@@H](O)[C@@H]1O (some centres unmarked) [Parishin],OC43 Inhibition rate,,-0.2%
O=c1c(-c2ccc(O[C@@H]3O[C@H](CO)[C@@H](O)[C@H](O)[C@H]3O)cc2)coc2cc(O)cc(O)c12 [Sophoricoside],OC43 Inhibition rate,,0.7%
CCCCCCCCCCCCCCCC=O [Hexadecanal],OC43 Inhibition rate,,-0.6%
NCCCC[C@H](N)C(=O)O [L-Lysine hydrochloride],OC43 Inhibition rate,"OC43 Inhibition rate, 24 h",-7.3%
C[C@@H]1O[C@@H](O[C@H]2[C@H](Oc3cc(O)c4c(c3)O[C@H](c3ccc(O)c(O)c3)CC4=O)O[C@H](CO)[C@@H](O)[C@@H]2O)[C@H](O)[C@H](O)[C@H]1O [Neoeriocitrin],OC43 Inhibition rate,,-2.2%
"O=C(O)C(O)c1ccc(O)c(O)c1 (centres unmarked) [3,4-Dihydroxymandelic acid]",OC43 Inhibition rate,,-0.2%

# Grouped by structure: those above containing a furan ring, fused or not (two)
smiles,measurement,setting,value
COc1c2ccoc2c(OCC(O)C(C)(C)O)c2oc(=O)ccc12 (racemic) [(Rac)-Byakangelicin],OC43 Inhibition rate,,-2.4%
C/C1=C\CC[C@]23O[C@H]2[C@@H](OC3=O)c2c(C)coc2C1 [Linderane],OC43 Inhibition rate,,1%

# — article PMC12431657, “Discovery and mechanistic insights of dibenzoylmethane as a broad spectrum inhibitor of coronavirus” (PLOS Pathogens, 2025)
